In patent US7888357B2, “Anti-inflammatory and protein kinase inhibitor compositions and related methods for downregulation of detrimental cellular responses and inhibition of cell death” (Northwestern University, priority 2001, dated 2011):
At least one structure is not confirmed: it was looked up by name or label, or the drawing left a doubt.

Columns and labels:
p38 MAPK = biological target: T1, p38 MAPK (Xenopus laevis, UniProt P47812); assay: Reconstituted enzyme assay, p38 MAPK; format: biochemical; conditions: γ-[32P]-ATP, synthetic peptide substrate
T1 construct: purchased Upstate Biotechnology
Experimental: (§1) [table] […] The rationale for using BV-2 cells in high throughput screening was the paucity of well-characterized human microglial cell lines, and the relevant activation responses and signaling pathways reflect those seen in human and rodent primary microglial cultures. Compounds were tested for their effects on NO accumulation in conditioned media of LPS-stimulated BV-2 cells by measurement of nitrite production by the Griess assay as a read-out for iNOS activity, as described previously. Stock solutions of compounds were prepared in dimethylsulfoxide (DMSO) or in water. When stock solutions were prepared in DMSO, control wells contained the same final concentration of DMSO as the compound-containing wells. […] Solutions of compounds for cell treatments were diluted to a 10× final concentration by dilution of stock solutions in αMEM media. […] Reconstituted enzyme assays were done as described s. The sources of protein kinases were: bovine heart PKA from Promega, rat brain PKC from Calbiochem, rat CaMKII from New England Biolabs, chicken gizzard MLCK prepared as described, and a p38 MAP kinase kit containing recombinant Xenopus p38-MAPK and its human substrate from Upstate Biotechnology. […]

CaMKII = biological target: T2, CaMKII (Rattus norvegicus, UniProt P11275); assay: Reconstituted enzyme assay, CaMKII; format: biochemical; conditions: γ-[32P]-ATP, synthetic peptide substrate; mean ± SEM
T2 construct: purchased New England Biolabs
Experimental: as §1

protein kinase A (PKA) = biological target: T3, protein kinase A (PKA) (Bos taurus, UniProt P00517); assay: Reconstituted enzyme assay, PKA; format: biochemical, bovine; conditions: γ-[32P]-ATP, synthetic peptide substrate
T3 construct: bovine heart PKA from Promega; purchased Promega; host or cells: bovine heart
Experimental: as §1

Q: `COc1ccc(S(=O)(=O)N(CCO)c2ccccc2CN(C)C/C=C/c2ccc(Cl)cc2)cc1` [Compound 5, KN93, reference compound] was tested. Which “IC50 p38 MAPK” value (p38 MAPK) did it give?
A: >100 µM

Q: What about the “IC50 CaMKII” value (CaMKII) of the same compound?
A: 8.4 ± 1.0 µM

Q: What about the “IC50 PKA” value (protein kinase A (PKA)) of the same compound?
A: >100 µM
